Results reported in article PMC10905880.

Tests used:
Experiment in all cases: split reporter; BiFC: OsCYCD-nYFP with OsRBR-cYFP or OsCDKA-cYFP co-expressed in Nicotiana benthamiana pavement cells by Agrobacterium infiltration; confocal microscopy after 48 and 72 h; Histone H1.2-RFP as nuclear marker
[1] = biological target: OsCYCD1;1-nYFP (rice (Oryza sativa L. spp. japonica, Nipponbare))
[2] = biological target: OsCYCD1;2-nYFP (rice (Oryza sativa L. spp. japonica, Nipponbare))
[3] = biological target: OsCYCD2;1-nYFP (rice (Oryza sativa L. spp. japonica, Nipponbare))
[4] = biological target: OsCYCD2;2-nYFP (rice (Oryza sativa L. spp. japonica, Nipponbare))
[5] = biological target: OsCYCD2;3-nYFP (rice (Oryza sativa L. spp. japonica, Nipponbare))
[6] = biological target: OsCYCD3;1-nYFP (rice (Oryza sativa L. spp. japonica, Nipponbare))
[7] = biological target: OsCYCD3;2-nYFP (rice (Oryza sativa L. spp. japonica, Nipponbare))
[8] = biological target: OsCYCD4;1-nYFP (rice (Oryza sativa L. spp. japonica, Nipponbare))
[9] = biological target: OsCYCD4;2-nYFP (rice (Oryza sativa L. spp. japonica, Nipponbare))
[10] = biological target: OsCYCD5;1-nYFP (rice (Oryza sativa L. spp. japonica, Nipponbare))
[11] = biological target: OsCYCD5;2-nYFP (rice (Oryza sativa L. spp. japonica, Nipponbare))
[12] = biological target: OsCYCD5;3-nYFP (rice (Oryza sativa L. spp. japonica, Nipponbare))
[13] = biological target: OsCYCD6;1-nYFP (rice (Oryza sativa L. spp. japonica, Nipponbare))
[14] = biological target: OsCYCD7;1-nYFP (rice (Oryza sativa L. spp. japonica, Nipponbare))

binding [1]: binds
binding [2]: binds
binding [3]: no binding
binding [4]: binds
binding [5]: no binding
binding [6]: no binding
binding [7]: binds
binding [8]: no binding
binding [9]: no binding
binding [10]: binds
binding [11]: binds
binding [12]: binds
binding [13]: no binding
binding [14]: no binding
B1: OsRBR1-cYFP (protein, UniProt Q84QM3 1-1010)
chain: MEGAAPPASSGSEVTGAGSGKVDAGGGAAMEERFADLCKSKLGLDESITRQAMQLFKESKSILLSSMSSLGSGSPEEIERFWSAFVLYCVSRLGKAGKGKEDGGISLCQILRAFSLNIVDFFKEMPQFCIKVGSVLAGLYGSDWEKRLELKELQANVVHLSLLSRYYKRAYQELFLLNDAKPPENSAEPNAQASDYYRFGWLLFLVLRIQTFSRFKDLVTSTNGLVSVLAVLIVHIPVRLRNFNIKESSSFAKKSDKGVNLIASLCEKYHTSEDELSKAIEKTNTLIVDILKKKPCPAASECQQDRLSFIDPEGLTYFKNLLEEDSLKLSLLMLEKEYENAINTKGELDERMFANDEDSLLGSGSLSGGAINLPGTKRKYDVMASPAKSITSPSPMSPPRFCASPTGNGYCSSKMAPITPVSTAMTTAKWLRSTISPLPSKPSGELLRFFSACDKDVTDDITRRAGIILGAIFTSSSFGERICTSVRSTNRIDAIWTEQRKMEALKLYYRVLESMCRAETQILSGNNLTSLLSNERFHRCMIACSAELVLATHKTVTMMFPAVLEKTGITAFDLSKVIESFVRHEDTLPRELKRHLNSLEERLLESMAWEKGSSMYNSLIVARPTLSAEINRLGLLAEPMPSLDAIAAHHNISLEGLPPLPFQKQEHSPDKDEVRSPKRACTERRNVLVDNNSFRSPVKDTLKSKLPPLQSAFLSPTRPNPAAGGELCAETGIGVFLSKIAKLAAIRIRGLCERLQLSQQVLERVYSLVQQIIIQQTALFFNRHIDQIILCSIYGVAKISQLALTFKEIIFGYRKQSQCKPQVFRSVYVHWASRSRNGKTGEDHVDIITFYNEVFIPTVKPLLVELGSGTSPNKKNEEKCAADGPYPESPRLSRFPNLPDMSPKKVSAAHNVYVSPLRTSKMDTLLSPSSKSYYACVGESTHAFQSPSKDLKVINNRLNSGKKVSGRLNFDVVSDLVVARSLSDQNSASAAATTADIATKTPVKLEQPDC

binding [1]: binds
binding [2]: binds
binding [3]: binds
binding [4]: no binding
binding [5]: binds
binding [6]: binds
binding [7]: binds
binding [8]: binds
binding [9]: no binding
binding [10]: binds
binding [11]: binds
binding [12]: binds
binding [13]: no binding
binding [14]: no binding
B2: OsRBR2-cYFP (protein, UniProt Q2R374 1-978)
chain: MASQPPAAVEARLADLCKELGVDEGVAGEAAAVLEEGKGALLASPSFGSKSPEDAEKLCFAFVLYCVSKLKETKAGSSGVRLWEILKGCKLKYDDFFKESQRLASRIDQVLGSRYGSDWEARLELKQLENLVNLLADASRFYCKAFNELFLSPSTDQEPGSTTNIPDYIRFGWLLFLILRSKSPELFKDLVSCIHGLVAILAILLIHVPAKFRSFTIEGSSHLIKQTEKGVDLLPSLCHNYHTSEDRLKEMMGKSYKVIEVFFSRKAINASEFKTVNLDKIDTDGLMYFKDLVDDEIFQSNLEKLEKLSSTTGCQGELDLEMFLTSNDYVLNAENSSGSSANFGCSKRVFETLASPTKTIKNMLAAPSSPSSPANGGSIKIVQMTPVTSAMTTAKWLRDVISSLPDKPSSKLEEFLSSCDTDLTSDVVKRVSIILEAIFPTKSIDRGTSIGLNCANAFDIPWAEARKMEASKLYYRVLEAICRAESQNNNVNNLTPLLSNERFHRCLIACSAELVLATHKTVIMMFPAVLESTGLTAFDLSKIIENFVRHEETLPRELKRHLNSLEEQLLESMSWEKGSSLYNSLVVARPSLSTEINSLGLLAEPMPSLDGIVARQSIHPDGLPPTPSKRWPSAGPDGNCYPQSPKRLCTESRNSLVERNSQTPPPKQSQTGLSILKAKYHPLQATFASPTVSNPVSGNEKCAVVGVQIFFSKILKLAAIRIRNLCERLRHEELTVSVYNIFKQILDQQTALFFNRHVDQIILCCLYGVAKVSQLSLTFKEIVNNYKREPQCKPEVFRSIFVGSTNRNGGFGSRHVDIIVFYNQVFVPTVKPLLVALMPSSTRPEDKRNTNSQIPGSPKSSPFSNLPDMSPKKVSSSHNVYVSPLRQTKMDALLSPSSRSFYACIGESTQAFQSPSKDLAAINSRLNYPTRRINTRINFDMVSDSVVAGSLGQPNGGSASSDPAAAFSPLSKKSKTDS

No constants are given. Whether binding was seen depends on the method and setting. Binding seen in cells or lysates may run through a third protein. For some of these results: Binding calls can cover weak binding; strength is not graded here. Sequences can lack the tags named with a protein. Each block holds one binder with its values, some of them ahead of it.
